The values that follow come from article PMC4963535 (Nature Communications, 2016).

This data set can be described thus: general procedure: Fmoc solid-phase peptide synthesis; PyBOP, HOBt, DIPEA (1a-d); HATU, DIPEA (2a-d, 3a-d); microwave. To be noted: whole synthesis.

Bounds are passed on as bounds.

For “[1-(4'-{4-[4-({(3R,5S)-5-[(3-chloro-5-ethyl-6-hydroxy-2-methoxybenzamido)methyl]-1-ethylpyrrolidin-3-yl}oxy)butyl]-1H-1,2,3-triazol-1-yl}-(1,1'-biphenyl)-4-yl)-1-carboxamido-[bis-(4,7,10,13,16,19-hexaoxaheneicosanoylamido)]]-L-arginyl-L-arginyl-L-prolyl-L-tyrosyl-L-isoleucyl-L-leucine”, the “final HPLC purity” value reads like this: (System S1D) 98.8%; (System S2D) 98.6%.

With “{1-[4'-(4-{4-[4-(2-methoxyphenyl)piperazin-1-yl]butyl}-1H-1,2,3-triazol-1-yl)-(1,1'-biphenyl)-4-yl]-1-carboxamido-(4,7,10,13,16,19-hexaoxaheneicosanoylamido)}-L-arginyl-L-arginyl-L-prolyl-L-tyrosyl-L-isoleucyl-L-leucine”, the “final HPLC purity” value (system S1A) is recorded as above 99%.

Turning to “{1-[4'-(4-{4-[4-(2-methoxyphenyl)piperazin-1-yl]butyl}-1H-1,2,3-triazol-1-yl)-(1,1'-biphenyl)-4-yl]-1-carboxamido-[bis-(4,7,10,13,16,19-hexaoxaheneicosanoylamido)]}-L-arginyl-L-arginyl-L-prolyl-L-tyrosyl-L-isoleucyl-L-leucine”, for the setting “system S1A”, the “final HPLC purity” value is recorded as above 99%. For “{1-[4'-(4-{4-[4-(2-methoxyphenyl)piperazin-1-yl]butyl}-1H-1,2,3-triazol-1-yl)-(1,1'-biphenyl)-4-yl]-1-carboxamido-[tetrakis-(4,7,10,13,16,19-hexaoxaheneicosanoylamido)]}-L-arginyl-L-arginyl-L-prolyl-L-tyrosyl-L-isoleucyl-L-leucine”, for the setting “system S1C”, the “final HPLC purity” value is reported as above 99%. On to “{1-[4'-(4-{4-[4-(2-methoxyphenyl)piperazin-1-yl]butyl}-1H-1,2,3-triazol-1-yl)-(1,1'-biphenyl)-4-yl]-1-carboxamido-[tris-(4,7,10,13,16,19-hexaoxaheneicosanoylamido)]}-L-arginyl-L-arginyl-L-prolyl-L-tyrosyl-L-isoleucyl-L-leucine”, for which the “final HPLC purity” value (system S1B) is recorded as above 99%. Regarding “{1-[4'-(4-{4-[(2,3-dihydro-1H-inden-2-yl)(propyl)amino]butyl}-1H-1,2,3-triazol-1-yl)-(1,1'-biphenyl)-4-yl]-1-carboxamido-(4,7,10,13,16,19-hexaoxaheneicosanoylamido)}-L-arginyl-L-arginyl-L-prolyl-L-tyrosyl-L-isoleucyl-L-leucine”, the “final HPLC purity” value (system S1A) is above 99%. Still for that read-out and setting: under “{1-[4'-(4-{4-[(2,3-dihydro-1H-inden-2-yl)(propyl)amino]butyl}-1H-1,2,3-triazol-1-yl)-(1,1'-biphenyl)-4-yl]-1-carboxamido-[bis-(4,7,10,13,16,19-hexaoxaheneicosanoylamido)]}-L-arginyl-L-arginyl-L-prolyl-N-[2-(4-hydroxyphenyl)ethyl]glycine-L-isoleucyl-L-leucine” stands above 99%. Take “{1-[4'-(4-{4-[(2,3-dihydro-1H-inden-2-yl)(propyl)amino]butyl}-1H-1,2,3-triazol-1-yl)-(1,1'-biphenyl)-4-yl]-1-carboxamido-[tetrakis-(4,7,10,13,16,19-hexaoxaheneicosanoylamido)]}-L-arginyl-L-arginyl-L-prolyl-L-tyrosyl-L-isoleucyl-L-leucine”: the “final HPLC purity” value (system S1C) worked out at 98%.
